These are yes or no findings as the source states them, for the method shown. In cells and extracts the contact can be indirect. Some results given as binding are weak or reduced against the parent protein; the word gives no strength. Each block holds one molecule with its values, some of them ahead of it.
Tests used:
[1] = target: REST corepressor 2 (RCOR2) (mouse (endogenous in HT22 and N2A)) (UniProt Q8C796); assay: co-IP; anti-RCOR2 antibody immunoprecipitation from nuclear soluble fractions enriched in RCOR2 (HT22 fractionation); IgG as specificity control; Western blot
[2] = target: REST corepressor 2 (RCOR2) (mouse (endogenous in HT22 and N2A)) (UniProt Q8C796); assay: co-IP; anti-RCOR2 antibody immunoprecipitation from N2A total cell extract; 50 mM Tris-HCl pH 7.5, 150 mM NaCl, 0.5% sodium deoxycholate, 1% NP40, sonicated; IgG control; Western blot
[3] = target: REST corepressor 2 (RCOR2) (mouse (endogenous in HT22 and N2A)) (UniProt Q8C796); assay: co-IP; anti-RCOR2 antibody immunoprecipitation from HT22 total cell extract; 50 mM Tris-HCl pH 7.5, 150 mM NaCl, 0.5% sodium deoxycholate, 1% NP40, sonicated; IgG control; Western blot
[4] = target: REST corepressor 2 (RCOR2) (human (endogenous in HEK293T)) (UniProt Q8IZ40); assay: co-IP; RCOR2 immunoprecipitation with HEK293T cells as input; 50 mM Tris-HCl pH 7.5, 150 mM NaCl, 0.5% sodium deoxycholate, 1% NP40, sonicated; Western blot

Sequences of proteins named here, by UniProt entry; tags and fusion partners are left off. A change or cut given only in a name is not applied to a line headed by its entry.
UniProt Q8C796: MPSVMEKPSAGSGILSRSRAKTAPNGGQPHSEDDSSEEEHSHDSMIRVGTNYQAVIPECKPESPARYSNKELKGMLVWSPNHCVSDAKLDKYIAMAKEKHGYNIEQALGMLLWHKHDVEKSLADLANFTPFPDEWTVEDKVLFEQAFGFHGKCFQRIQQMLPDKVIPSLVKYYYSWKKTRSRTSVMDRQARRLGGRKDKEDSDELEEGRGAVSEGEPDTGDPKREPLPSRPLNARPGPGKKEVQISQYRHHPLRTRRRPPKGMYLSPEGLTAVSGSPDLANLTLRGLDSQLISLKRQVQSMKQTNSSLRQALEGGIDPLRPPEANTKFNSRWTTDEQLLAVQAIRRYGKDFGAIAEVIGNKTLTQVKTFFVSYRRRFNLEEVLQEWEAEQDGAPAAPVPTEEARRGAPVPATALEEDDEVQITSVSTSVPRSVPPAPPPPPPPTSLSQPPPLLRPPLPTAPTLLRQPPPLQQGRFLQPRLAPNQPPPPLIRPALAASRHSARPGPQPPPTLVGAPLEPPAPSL
UniProt Q8IZ40: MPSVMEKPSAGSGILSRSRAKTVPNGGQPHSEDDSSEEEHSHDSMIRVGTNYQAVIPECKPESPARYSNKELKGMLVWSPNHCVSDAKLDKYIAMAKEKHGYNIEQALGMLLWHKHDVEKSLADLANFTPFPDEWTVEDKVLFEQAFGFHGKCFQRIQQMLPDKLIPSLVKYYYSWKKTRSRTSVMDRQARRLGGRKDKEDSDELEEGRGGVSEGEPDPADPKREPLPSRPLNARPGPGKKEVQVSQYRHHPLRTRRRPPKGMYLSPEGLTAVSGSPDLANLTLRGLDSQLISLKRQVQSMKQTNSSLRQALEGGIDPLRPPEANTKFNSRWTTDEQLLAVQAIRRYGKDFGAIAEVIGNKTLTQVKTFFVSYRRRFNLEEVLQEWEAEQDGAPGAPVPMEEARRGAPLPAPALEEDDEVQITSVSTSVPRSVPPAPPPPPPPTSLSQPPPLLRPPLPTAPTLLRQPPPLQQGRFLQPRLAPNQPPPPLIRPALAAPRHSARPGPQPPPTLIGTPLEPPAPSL
UniProt Q8BTI8: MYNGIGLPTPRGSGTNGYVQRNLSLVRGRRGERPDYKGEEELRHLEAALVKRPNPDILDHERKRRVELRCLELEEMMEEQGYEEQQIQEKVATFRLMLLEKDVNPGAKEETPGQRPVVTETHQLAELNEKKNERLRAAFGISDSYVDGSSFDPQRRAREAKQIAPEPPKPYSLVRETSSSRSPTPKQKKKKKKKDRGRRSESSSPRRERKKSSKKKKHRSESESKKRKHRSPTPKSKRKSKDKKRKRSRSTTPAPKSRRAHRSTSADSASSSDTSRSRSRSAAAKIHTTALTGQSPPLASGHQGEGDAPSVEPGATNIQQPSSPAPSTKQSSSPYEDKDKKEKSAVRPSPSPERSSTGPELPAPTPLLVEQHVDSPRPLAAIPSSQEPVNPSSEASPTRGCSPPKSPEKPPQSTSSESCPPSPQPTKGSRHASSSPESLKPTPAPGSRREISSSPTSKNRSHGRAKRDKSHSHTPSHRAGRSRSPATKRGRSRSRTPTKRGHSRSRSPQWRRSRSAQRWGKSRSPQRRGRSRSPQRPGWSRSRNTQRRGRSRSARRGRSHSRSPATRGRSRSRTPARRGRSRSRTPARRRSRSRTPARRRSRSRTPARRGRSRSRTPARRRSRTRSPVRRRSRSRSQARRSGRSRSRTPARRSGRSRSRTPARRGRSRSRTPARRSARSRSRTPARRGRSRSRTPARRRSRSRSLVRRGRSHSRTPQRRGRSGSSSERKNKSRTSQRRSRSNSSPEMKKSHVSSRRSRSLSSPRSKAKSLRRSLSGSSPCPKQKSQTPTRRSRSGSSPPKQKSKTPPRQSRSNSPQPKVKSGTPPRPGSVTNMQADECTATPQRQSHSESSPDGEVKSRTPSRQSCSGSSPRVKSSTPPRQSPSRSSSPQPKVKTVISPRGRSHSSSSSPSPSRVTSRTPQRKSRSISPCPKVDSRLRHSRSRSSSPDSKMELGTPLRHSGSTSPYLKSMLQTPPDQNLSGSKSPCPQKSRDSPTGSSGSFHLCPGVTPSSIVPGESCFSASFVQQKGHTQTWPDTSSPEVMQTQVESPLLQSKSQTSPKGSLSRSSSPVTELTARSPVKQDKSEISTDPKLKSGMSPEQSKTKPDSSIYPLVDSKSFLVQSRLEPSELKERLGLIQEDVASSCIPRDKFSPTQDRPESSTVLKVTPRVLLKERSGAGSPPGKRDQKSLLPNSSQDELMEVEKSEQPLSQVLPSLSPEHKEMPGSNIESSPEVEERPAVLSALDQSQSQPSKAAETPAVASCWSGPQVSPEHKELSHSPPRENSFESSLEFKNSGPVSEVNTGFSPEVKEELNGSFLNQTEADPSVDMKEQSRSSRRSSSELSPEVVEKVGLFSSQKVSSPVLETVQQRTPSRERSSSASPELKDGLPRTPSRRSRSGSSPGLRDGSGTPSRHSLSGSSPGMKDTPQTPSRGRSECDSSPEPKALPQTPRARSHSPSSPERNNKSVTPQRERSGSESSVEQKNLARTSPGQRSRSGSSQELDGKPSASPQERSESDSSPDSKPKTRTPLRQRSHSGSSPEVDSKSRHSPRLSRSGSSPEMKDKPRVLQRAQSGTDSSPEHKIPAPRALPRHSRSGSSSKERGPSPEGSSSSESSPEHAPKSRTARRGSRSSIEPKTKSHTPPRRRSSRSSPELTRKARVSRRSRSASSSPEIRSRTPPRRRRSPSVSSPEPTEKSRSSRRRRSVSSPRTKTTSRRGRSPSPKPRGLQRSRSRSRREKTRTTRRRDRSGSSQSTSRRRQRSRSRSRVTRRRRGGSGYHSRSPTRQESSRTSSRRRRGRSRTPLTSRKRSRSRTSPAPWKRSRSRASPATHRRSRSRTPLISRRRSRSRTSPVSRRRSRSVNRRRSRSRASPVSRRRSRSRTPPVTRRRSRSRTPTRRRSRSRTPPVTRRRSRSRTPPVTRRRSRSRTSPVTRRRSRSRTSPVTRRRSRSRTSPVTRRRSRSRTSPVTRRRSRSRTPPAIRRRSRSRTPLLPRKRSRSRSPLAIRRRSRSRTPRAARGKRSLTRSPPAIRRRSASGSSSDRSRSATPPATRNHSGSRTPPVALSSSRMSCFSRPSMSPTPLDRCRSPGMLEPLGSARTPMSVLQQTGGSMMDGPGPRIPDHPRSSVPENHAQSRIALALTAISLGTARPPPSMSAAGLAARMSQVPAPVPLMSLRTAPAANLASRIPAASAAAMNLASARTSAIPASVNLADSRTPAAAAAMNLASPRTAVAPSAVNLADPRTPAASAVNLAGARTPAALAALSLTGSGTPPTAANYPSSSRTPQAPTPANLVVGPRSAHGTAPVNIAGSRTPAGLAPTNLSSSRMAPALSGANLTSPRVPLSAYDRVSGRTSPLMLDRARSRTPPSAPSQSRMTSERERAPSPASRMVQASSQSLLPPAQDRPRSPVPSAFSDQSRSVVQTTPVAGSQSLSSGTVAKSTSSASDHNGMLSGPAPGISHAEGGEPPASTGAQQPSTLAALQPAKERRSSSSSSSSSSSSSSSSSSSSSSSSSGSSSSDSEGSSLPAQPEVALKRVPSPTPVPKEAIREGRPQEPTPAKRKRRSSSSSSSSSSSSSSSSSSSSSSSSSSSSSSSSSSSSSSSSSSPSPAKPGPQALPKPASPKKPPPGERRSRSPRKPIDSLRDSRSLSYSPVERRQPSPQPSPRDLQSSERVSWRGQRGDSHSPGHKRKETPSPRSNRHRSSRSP
UniProt Q61686: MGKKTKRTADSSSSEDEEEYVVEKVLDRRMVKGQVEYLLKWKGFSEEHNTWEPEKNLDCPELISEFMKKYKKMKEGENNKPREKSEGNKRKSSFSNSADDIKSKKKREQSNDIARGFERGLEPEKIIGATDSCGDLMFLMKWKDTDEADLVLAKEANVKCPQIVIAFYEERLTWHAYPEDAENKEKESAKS
UniProt Q9QX47: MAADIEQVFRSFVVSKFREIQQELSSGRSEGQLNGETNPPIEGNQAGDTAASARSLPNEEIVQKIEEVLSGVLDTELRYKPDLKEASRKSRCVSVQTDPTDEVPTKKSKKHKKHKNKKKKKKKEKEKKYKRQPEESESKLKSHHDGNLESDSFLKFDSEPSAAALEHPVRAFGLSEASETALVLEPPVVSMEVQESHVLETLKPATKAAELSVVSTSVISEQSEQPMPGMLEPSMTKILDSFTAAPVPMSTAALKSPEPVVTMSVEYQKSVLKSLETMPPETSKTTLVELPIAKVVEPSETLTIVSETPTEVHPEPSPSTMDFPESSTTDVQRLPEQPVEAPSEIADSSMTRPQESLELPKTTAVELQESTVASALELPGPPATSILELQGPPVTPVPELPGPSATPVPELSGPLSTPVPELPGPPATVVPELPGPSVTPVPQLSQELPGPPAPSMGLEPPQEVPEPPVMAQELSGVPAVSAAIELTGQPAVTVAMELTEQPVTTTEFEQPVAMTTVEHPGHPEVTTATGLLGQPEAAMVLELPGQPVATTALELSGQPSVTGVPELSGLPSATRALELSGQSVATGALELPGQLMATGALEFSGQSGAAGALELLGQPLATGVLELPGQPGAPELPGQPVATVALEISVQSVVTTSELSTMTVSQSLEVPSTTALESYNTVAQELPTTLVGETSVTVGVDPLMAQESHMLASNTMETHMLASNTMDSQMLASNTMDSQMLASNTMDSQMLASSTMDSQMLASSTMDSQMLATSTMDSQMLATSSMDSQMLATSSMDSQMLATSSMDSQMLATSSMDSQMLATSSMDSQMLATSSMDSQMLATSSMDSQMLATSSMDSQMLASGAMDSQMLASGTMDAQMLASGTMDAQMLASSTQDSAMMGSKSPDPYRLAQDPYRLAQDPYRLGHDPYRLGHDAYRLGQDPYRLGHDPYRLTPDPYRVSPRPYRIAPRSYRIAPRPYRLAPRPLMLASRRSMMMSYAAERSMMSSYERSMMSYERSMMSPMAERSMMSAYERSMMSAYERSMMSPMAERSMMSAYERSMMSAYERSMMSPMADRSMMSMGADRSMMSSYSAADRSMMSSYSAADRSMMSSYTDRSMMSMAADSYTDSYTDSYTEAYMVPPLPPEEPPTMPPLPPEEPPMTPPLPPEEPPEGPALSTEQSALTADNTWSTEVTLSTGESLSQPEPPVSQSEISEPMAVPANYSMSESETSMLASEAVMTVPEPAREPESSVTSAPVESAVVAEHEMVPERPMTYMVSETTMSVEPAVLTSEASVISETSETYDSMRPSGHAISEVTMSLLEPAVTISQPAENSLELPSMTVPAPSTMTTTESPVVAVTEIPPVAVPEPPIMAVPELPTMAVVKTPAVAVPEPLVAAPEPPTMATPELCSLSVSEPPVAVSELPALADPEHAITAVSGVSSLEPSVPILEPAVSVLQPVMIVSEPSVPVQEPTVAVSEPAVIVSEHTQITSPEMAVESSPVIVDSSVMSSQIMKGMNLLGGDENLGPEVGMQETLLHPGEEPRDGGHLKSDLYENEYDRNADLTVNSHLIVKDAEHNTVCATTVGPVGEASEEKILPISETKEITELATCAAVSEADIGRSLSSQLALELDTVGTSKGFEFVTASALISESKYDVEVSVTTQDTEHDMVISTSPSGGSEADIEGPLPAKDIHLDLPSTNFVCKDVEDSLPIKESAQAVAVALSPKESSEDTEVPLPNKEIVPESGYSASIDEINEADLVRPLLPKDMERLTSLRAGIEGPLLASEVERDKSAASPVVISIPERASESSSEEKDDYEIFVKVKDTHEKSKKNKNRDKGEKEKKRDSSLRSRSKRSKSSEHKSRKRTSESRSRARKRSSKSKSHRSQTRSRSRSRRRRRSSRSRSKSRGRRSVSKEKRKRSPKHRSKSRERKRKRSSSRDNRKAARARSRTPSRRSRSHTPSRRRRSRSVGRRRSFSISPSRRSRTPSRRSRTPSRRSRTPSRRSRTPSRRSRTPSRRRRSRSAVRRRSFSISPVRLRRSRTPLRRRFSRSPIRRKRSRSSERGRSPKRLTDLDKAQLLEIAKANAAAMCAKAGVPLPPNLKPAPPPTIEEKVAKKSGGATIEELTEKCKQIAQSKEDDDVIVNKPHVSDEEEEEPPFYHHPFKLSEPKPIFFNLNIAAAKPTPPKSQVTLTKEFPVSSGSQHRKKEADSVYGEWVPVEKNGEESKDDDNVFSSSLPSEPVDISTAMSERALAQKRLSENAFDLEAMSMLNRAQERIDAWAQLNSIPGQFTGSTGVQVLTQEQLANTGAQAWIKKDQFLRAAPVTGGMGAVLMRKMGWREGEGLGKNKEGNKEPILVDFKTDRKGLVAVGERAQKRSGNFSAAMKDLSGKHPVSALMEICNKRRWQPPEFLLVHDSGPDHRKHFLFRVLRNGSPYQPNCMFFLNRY

Molecule: serine arginine repetitive matrix protein 2 (SRRM2) (from UniProt Q8BTI8 1-2703)
- binding [2]: binds

B1: serine and arginine splicing factor 7 (SRSF7) (protein, UniProt Q8BL97 1-267)
chain: MRSSARGRPLQAATAFFLSLFFFLRRFERGFWLWGGDSETKVYVGNLGTGAGKGELERAFSYYGPLRTVWIARNPPGFAFVEFEDPRDAEDAVRGLDGKVICGSRVRVELSTGMPRRSRFDRPPARRPFDPNDRCYECGEKGHYAYDCHRYSRRRRSRSRSRSHSRSRGRRYSRSRSRSRGRRSRSASPRRSRSVSLRRSRSASLRRSRSGSIIGSRYFQSRSRSRSRSRSISRPRSSRSKSRSPSPKRSRSPSGSPHRSASPERMD
- binding [3]: binds

B2: serine and arginine splicing factor 7 (SRSF7) (protein, UniProt Q16629 1-238)
chain: MSRYGRYGGETKVYVGNLGTGAGKGELERAFSYYGPLRTVWIARNPPGFAFVEFEDPRDAEDAVRGLDGKVICGSRVRVELSTGMPRRSRFDRPPARRPFDPNDRCYECGEKGHYAYDCHRYSRRRRSRSRSRSHSRSRGRRYSRSRSRSRGRRSRSASPRRSRSISLRRSRSASLRRSRSGSIKGSRYFQSPSRSRSRSRSISRPRSSRSKSRSPSPKRSRSPSGSPRRSASPERMD
- binding [4]: binds

Continued, values first:

- binding [1]: no binding
Molecule: Heterochromatin protein 1α (from UniProt Q61686 1-191)

- binding [1]: binds
Molecule: SON (from UniProt Q9QX47 1-2444)
